# Some of the results follow.
# How the values were obtained:
# Experiment in all cases: glycan array binding signal (z-score within array); higher = stronger binding
# Conditions in all cases: glycan notation: IUPAC condensed, linker removed
# [1] = biological target: Neu5Ac(a2-8)Neu5Ac(a2-3)Gal(b1-4)Glc
# Method in brief: (§1)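 From the Consortium for Functional Glycomics database, 3228 arrays were curated, keeping only those whose protein sequence was available. Binding is given as a within-array Z-score averaged across arrays sharing a protein sequence and across linkers. Negative Z-scores can be read as non-binding.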
# [2] = biological target: Neu5Ac(a2-8)Neu5Ac(a2-3)Gal(b1-4)GlcNAc
# Method in brief: as §1
# [3] = biological target: Neu5Ac(a2-8)Neu5Ac(a2-3)[Gal(b1-3)GalNAc(b1-4)]Gal(b1-4)Glc
# Method in brief: as §1
# [4] = biological target: Neu5Ac(a2-8)Neu5Ac(a2-3)[GalNAc(b1-4)]Gal(b1-4)Glc
# Method in brief: as §1
# [5] = biological target: Neu5Ac(a2-8)Neu5Ac(a2-8)Neu5Ac
# Method in brief: as §1
# [6] = biological target: Neu5Ac(a2-8)Neu5Ac(a2-8)Neu5Ac(a2-3)Gal(b1-4)Glc
# Method in brief: as §1
# [7] = biological target: Neu5Ac(a2-8)Neu5Ac(a2-8)Neu5Ac(a2-3)[Gal(b1-3)GalNAc(b1-4)]Gal(b1-4)Glc
# Method in brief: as §1
# [8] = biological target: Neu5Ac(a2-8)Neu5Ac(a2-8)Neu5Ac(a2-3)[GalNAc(b1-4)]Gal(b1-4)Glc
# Method in brief: as §1
# [9] = biological target: Neu5Ac(a2-8)Neu5Ac(a2-8)Neu5Ac(a2-8)Neu5Ac(a2-3)[GalNAc(b1-4)]Gal(b1-4)Glc
# Method in brief: as §1
# [10] = biological target: Neu5Ac(a2-8)Neu5Gc(a2-3)Gal(b1-4)GlcNAc
# Method in brief: as §1
# [11] = biological target: Neu5Ac(b2-6)Gal(b1-4)GlcNAc
# Method in brief: as §1
# Neu5Ac(b2-6)GalNAc = biological target: Neu5Ac(b2-6)GalNAc
# Method in brief: as §1
# [12] = biological target: Neu5Ac9Ac(a2-3)Gal(b1-3)GlcNAc
# Method in brief: as §1
# [13] = biological target: Neu5Ac9Ac(a2-3)Gal(b1-4)GlcNAc
# Method in brief: as §1
# [14] = biological target: Neu5Ac9Ac(a2-6)Gal(b1-4)GlcNAc
# Method in brief: as §1
# [15] = biological target: Neu5Gc(a2-3)Gal(b1-3)GlcNAc
# Method in brief: as §1
# [16] = biological target: Neu5Gc(a2-3)Gal(b1-3)[Fuc(a1-4)]GlcNAc
# Method in brief: as §1
# Neu5Gc(a2-3)Gal(b1-4)Glc = biological target: Neu5Gc(a2-3)Gal(b1-4)Glc
# Method in brief: as §1
# [17] = biological target: Neu5Gc(a2-3)Gal(b1-4)GlcNAc
# Method in brief: as §1
# [18] = biological target: Neu5Gc(a2-3)Gal(b1-4)GlcNAc(b1-3)Gal(b1-4)GlcNAc(b1-2)Man(a1-3)[Neu5Gc(a2-3)Gal(b1-4)GlcNAc(b1-3)Gal(b1-4)GlcNAc(b1-2)Man(a1-6)]Man(b1-4)GlcNAc(b1-4)GlcNAc
# Method in brief: as §1
# [19] = biological target: Neu5Gc(a2-3)Gal(b1-4)[Fuc(a1-3)]GlcNAc
# Method in brief: as §1
# [20] = biological target: Neu5Gc(a2-6)Gal(b1-4)GlcNAc
# Method in brief: as §1
# Neu5Gc(a2-6)GalNAc = biological target: Neu5Gc(a2-6)GalNAc
# Method in brief: as §1
# [21] = biological target: Neu5Gc(a2-8)Neu5Ac(a2-3)Gal(b1-4)GlcNAc
# Method in brief: as §1
# [22] = biological target: Neu5Gc(a2-8)Neu5Gc(a2-3)Gal(b1-4)GlcNAc
# Method in brief: as §1
# [23] = biological target: Neu5Gc(a2-8)Neu5Gc(a2-3)Gal(b1-4)GlcNAc(b1-3)Gal(b1-4)GlcNAc
# Method in brief: as §1
# [24] = biological target: Neu5Gc(a2-8)Neu5Gc(a2-6)Gal(b1-4)GlcNAc
# Method in brief: as §1
# [25] = biological target: Neu5Gc(b2-6)Gal(b1-4)GlcNAc
# Method in brief: as §1
binder,measurement,setting,value
GST Gap3 (Streptococcus parasanguinis) (protein) MTKQLISEIYWNEIRKGENYLYGSQIKFQEDLVNFYNPQLASGKPIVTFKSRTNYQGDRHSPDLPILIQGNRYLLEYQIDAVPANSFFLQLDFFNRQAEQIESIVLRNSGESFIFPKDTFTYTLTLMSAGCQSVTYQKFMIYDINDEEKKNHIVENRYLRELLPKDLDLVKNLIEYI,glycan array binding signal (z-score),[1],-0.318
same,glycan array binding signal (z-score),[2],-0.321
same,glycan array binding signal (z-score),[3],0.348
same,glycan array binding signal (z-score),[4],0.096
same,glycan array binding signal (z-score),[5],0.585
same,glycan array binding signal (z-score),[6],0.221
same,glycan array binding signal (z-score),[7],-0.597
same,glycan array binding signal (z-score),[8],-0.357
same,glycan array binding signal (z-score),[9],0.791
same,glycan array binding signal (z-score),[10],-0.586
same,glycan array binding signal (z-score),[11],-0.516
same,glycan array binding signal (z-score),Neu5Ac(b2-6)GalNAc,-0.391
same,glycan array binding signal (z-score),[12],-0.579
same,glycan array binding signal (z-score),[13],-0.631
same,glycan array binding signal (z-score),[14],-0.31
same,glycan array binding signal (z-score),[15],-0.403
same,glycan array binding signal (z-score),[16],-0.364
same,glycan array binding signal (z-score),Neu5Gc(a2-3)Gal(b1-4)Glc,-0.537
same,glycan array binding signal (z-score),[17],-0.209
same,glycan array binding signal (z-score),[18],-0.268
same,glycan array binding signal (z-score),[19],-0.183
same,glycan array binding signal (z-score),[20],-0.236
same,glycan array binding signal (z-score),Neu5Gc(a2-6)GalNAc,-0.529
same,glycan array binding signal (z-score),[21],-0.62
same,glycan array binding signal (z-score),[22],-0.359
same,glycan array binding signal (z-score),[23],-0.362
same,glycan array binding signal (z-score),[24],-0.267
same,glycan array binding signal (z-score),[25],0.409

# Reformatted tab-delimited: part of the list above.
binder	measurement	setting	value
GST Gap3 (Streptococcus parasanguinis) (protein) MTKQLISEIYWNEIRKGENYLYGSQIKFQEDLVNFYNPQLASGKPIVTFKSRTNYQGDRHSPDLPILIQGNRYLLEYQIDAVPANSFFLQLDFFNRQAEQIESIVLRNSGESFIFPKDTFTYTLTLMSAGCQSVTYQKFMIYDINDEEKKNHIVENRYLRELLPKDLDLVKNLIEYI	glycan array binding signal (z-score)	[5]	0.585
same	glycan array binding signal (z-score)	[8]	-0.357
same	glycan array binding signal (z-score)	[12]	-0.579
same	glycan array binding signal (z-score)	[15]	-0.403
same	glycan array binding signal (z-score)	[19]	-0.183
same	glycan array binding signal (z-score)	[22]	-0.359

# — the supplement of paper PMC8728848
